# Measured values: PubChem BioAssay AID686949 (The Scripps Research Institute Molecular Screening Center, 2013)
# Protein sequences, listed by entry. Tags and fused reporters are not part of them. Lines headed by an entry give the natural chain unless they say otherwise; changes in a name come on top.
# UniProt P49862: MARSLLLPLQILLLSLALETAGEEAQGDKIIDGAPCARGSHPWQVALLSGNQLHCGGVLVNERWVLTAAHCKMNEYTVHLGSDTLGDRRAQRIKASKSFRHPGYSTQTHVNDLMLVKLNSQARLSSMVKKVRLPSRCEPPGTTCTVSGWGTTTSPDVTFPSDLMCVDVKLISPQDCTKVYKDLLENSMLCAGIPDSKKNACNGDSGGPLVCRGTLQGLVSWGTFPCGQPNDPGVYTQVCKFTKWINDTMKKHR
# The entries are a selection whose mix differs from that of the whole data set. Calls of active or inactive are those of the source.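 Rule for the calls: active = activation, as change over the incubation, above the mean of all tested compounds plus 3 SD (cut at about 13% in these data); inactive = the rest.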
# Target: Kallikrein-7 (Homo sapiens) (UniProt P49862)
# Test: activation of human kallikrein-7 proenzyme – biochemical, fluorescence intensity, triplicate, confirmation (AID 686949)
# Details: purified proKLK7, EDANS-DABCYL substrate fluorescence; at 7 µM; stronger effect = higher value; scaled: vehicle 0, mature enzyme 100
row,Compound,activation
1,Oc1ccc2ccccc2c1CNc1cnc2ccccc2c1,active: 62.3%
2,COC(=O)COc1ccc2cc(-c3ccc(OC)cc3)c(=O)oc2c1,active: 70.9%
